Assay results: publication PMC7819943, “Rice protein-binding microarrays: a tool to detect cis-acting elements near promoter regions in rice”
The other results are listed elsewhere or left out.

Protein sequences, listed by entry. Tags and fused reporters are not part of them.
UniProt Q0JBA9, entry or part of it: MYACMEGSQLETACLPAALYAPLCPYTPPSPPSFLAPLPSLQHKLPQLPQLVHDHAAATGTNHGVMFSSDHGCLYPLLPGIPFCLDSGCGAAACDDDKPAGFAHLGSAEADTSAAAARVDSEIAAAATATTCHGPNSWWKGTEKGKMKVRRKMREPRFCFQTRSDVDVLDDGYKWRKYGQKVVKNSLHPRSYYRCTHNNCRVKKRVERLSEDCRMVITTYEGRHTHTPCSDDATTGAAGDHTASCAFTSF

These sequences were tested against OsWRKY34 (Oryza sativa, UniProt Q0JBA9 1-250) (assay: protein-binding microarray (RPBM); PBS, 2% BSA, 51.3 ng/ul salmon testes DNA, 50 uM zinc acetate, 200 nM TF, 25 C, 1 h; high values mean tight binding). Conditions: protein: recombinant; tags: N-terminal polyhistidine and DsRed monomer fusion (pET32a); label: CyDye5-dUTP incorporated in the synthesized complementary strand; 3' TTTTT single-stranded linker to array surface; dsDNA, one strand shown.
In short: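 Per-feature fluorescence intensity (arbitrary units), read on an Axon 4000B scanner, is the binding signal. Transcription factors carrying an N-terminal polyhistidine tag and DsRed fusion were expressed in E. coli BL21-CodonPlus and purified on Ni–NTA. A custom Agilent array, made double-stranded by primer extension with Cy5-dUTP and blocked with 2% BSA, was incubated with 200 nM protein in PBS, 2% BSA, salmon testes DNA and 50 µM zinc acetate at 25 °C for 1 h and then washed.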
In the case of “GCAGGGAATTTGGTGATTCAGAGTAGTTTGTGTTGGAAAACGGAGTCACCTAGTGCAG”, the binding signal is reported as 8180 fluorescence intensity (a.u.).
“CCTATATTTTTATCAGATCTGATCCATGTACAAGTGGTACCGGAGTCACCTAGTGCAG” was tested, and the binding signal was 9860 fluorescence intensity (a.u.).
“GGGATCCTAACTCGCCACCAAACCTCCTCGTCGTTCTTCTCGGAGTCACCTAGTGCAG” was tested, and the binding signal was 10700 fluorescence intensity (a.u.).
In the case of “GCGTCCCCGCGGGGACGTTCCTGGTCGGGCGGGCGTACTTCGGAGTCACCTAGTGCAG”, the binding signal is reported as 9290 fluorescence intensity (a.u.).
In the case of “AACCACTACCGTTTTTGACGTCAATTTCAATGCTCGGAATCGGAGTCACCTAGTGCAG”, the binding signal is reported as 11400 fluorescence intensity (a.u.).
“TCTCCCACTAACCATCGCCGGGAAATATTCGACTTAAAGTCGGAGTCACCTAGTGCAG” was tested, and the binding signal was 10200 fluorescence intensity (a.u.).
In the case of “CAAACTGAGGATATTTAGTATTTTGCCACTTTATAAACACCGGAGTCACCTAGTGCAG”, the binding signal is reported as 9240 fluorescence intensity (a.u.).
With “TAACACGAGGTACGGGGAGGGGCGGATGGGTGGCGGCGGCCGGAGTCACCTAGTGCAG” the binding signal was 11900 fluorescence intensity (a.u.).
For “ACCTTTTTAAATATTTGACACTGTCGACTTTTTAGCACATCGGAGTCACCTAGTGCAG”, the binding signal was 9730 fluorescence intensity (a.u.).
For “GAGGCAAACCAGTCGACAACATACACACATACATACAGGACGGAGTCACCTAGTGCAG”, the binding signal was 8130 fluorescence intensity (a.u.).
With “ACCAATCTATGACCGGCCTGACGCCGGTCACGTCTGACTGCGGAGTCACCTAGTGCAG” the binding signal was 10700 fluorescence intensity (a.u.).
For “GCCTGCCTCGCCTCGGTTGGTGGCGCGCGCGCCGCTCGGCCGGAGTCACCTAGTGCAG”, the binding signal was 8440 fluorescence intensity (a.u.).
In the case of “AAATTAGCCTTCACTCGTTGCTACATACGTGTATTTTTTTCGGAGTCACCTAGTGCAG”, the binding signal is reported as 8970 fluorescence intensity (a.u.).
“CATGATATAACTGTAACACATCAAGTTGTCTGACCATATCCGGAGTCACCTAGTGCAG” was tested, and the binding signal was 8530 fluorescence intensity (a.u.).
For “TTCTCTCTTGTTTTCCGTTATTGTACTCGCTATTAGTGGTCGGAGTCACCTAGTGCAG”, the binding signal was 8490 fluorescence intensity (a.u.).
For “TATGGTGTTTCTTAATTGCTTTTTGCTTTTTATTATATCTCGGAGTCACCTAGTGCAG”, the binding signal was 11100 fluorescence intensity (a.u.).
“CGACTGCAGCTGATCCGGATTCAACACGGACATAGTACACCGGAGTCACCTAGTGCAG” was tested, and the binding signal was 8550 fluorescence intensity (a.u.).
“CTTTTTCTTTCTTTTCGTTAGCACATTTTTAAAACAATTACGGAGTCACCTAGTGCAG” was tested, and the binding signal was 8530 fluorescence intensity (a.u.).
“GAAGAAAAACTCCTGGACTCGTTGACCAAAACCTAATACGCGGAGTCACCTAGTGCAG” was tested, and the binding signal was 11100 fluorescence intensity (a.u.).
In the case of “AGTACTACTACTACTACATACAGCTGCCTTTGCTTAGCTCCGGAGTCACCTAGTGCAG”, the binding signal is reported as 9580 fluorescence intensity (a.u.).
“TGGCCATTCCCTTCCTCCCGCCGCACGCATCCTCTGATCCCGGAGTCACCTAGTGCAG” was tested, and the binding signal was 8050 fluorescence intensity (a.u.).
“ATTACCAATATTAATCACTTTCTGTGTTCTGCTGTTAATTCGGAGTCACCTAGTGCAG” was tested, and the binding signal was 9410 fluorescence intensity (a.u.).
In the case of “GAGCTAGATGCTCCCTCGCATCCATCTCCTAGCTTTCCTTCGGAGTCACCTAGTGCAG”, the binding signal is reported as 8790 fluorescence intensity (a.u.).
“CATCATCATCATCCGTACAAAACGGTATCTAGCCTAGCTACGGAGTCACCTAGTGCAG” was tested, and the binding signal was 8620 fluorescence intensity (a.u.).
“CTCTTCTTGAGTTCTTGAATCAATGCGTTCTTGAGTTCTTCGGAGTCACCTAGTGCAG” was tested, and the binding signal was 8880 fluorescence intensity (a.u.).
With “ATATATGCATGGCCCATCTTGAAGTTCATGTTGCACGTATCGGAGTCACCTAGTGCAG” the binding signal was 8610 fluorescence intensity (a.u.).
“TTTACATGTGTATTTTGACCAGGCCCAGTGTTTCTATACTCGGAGTCACCTAGTGCAG” was tested, and the binding signal was 8910 fluorescence intensity (a.u.).
With “TCGACATGCCTATTTATTCTGGCTTCGTCTTTTCCCATGCCGGAGTCACCTAGTGCAG” the binding signal was 8510 fluorescence intensity (a.u.).
With “AGGGTCTCATCACCGCCGCCGCCGCCGCCGCCTCCTCCTCCGGAGTCACCTAGTGCAG” the binding signal was 8480 fluorescence intensity (a.u.).
“TACAAAGGAATCTCTTTTACACCATGTACTCCCTCTATCACGGAGTCACCTAGTGCAG” was tested, and the binding signal was 8260 fluorescence intensity (a.u.).
With “ACTCCATCCACCGCCGCCGCCTCCACCACGCGCGCCGCATCGGAGTCACCTAGTGCAG” the binding signal was 8710 fluorescence intensity (a.u.).
With “CCGCCGTCGCGTGGGAGGGGAGGGGAGGGGATGGAAGGAGCGGAGTCACCTAGTGCAG” the binding signal was 11900 fluorescence intensity (a.u.).
With “ATTGTTTTATTTGGGTGATTAAATTTGTTTTTATTTACATCGGAGTCACCTAGTGCAG” the binding signal was 8430 fluorescence intensity (a.u.).
“CAGATGTGTAGTCTTTTGTTTCTTCTATTTATTTATTCTACGGAGTCACCTAGTGCAG” was tested, and the binding signal was 12900 fluorescence intensity (a.u.).
In the case of “CATTAGATTTACATTTTGGTTTTGGATCGATTAATTCATGCGGAGTCACCTAGTGCAG”, the binding signal is reported as 10100 fluorescence intensity (a.u.).
In the case of “GCTAGTTAGTATTGTTGTTTGAGCCGTATATTTTCTGTCGCGGAGTCACCTAGTGCAG”, the binding signal is reported as 12000 fluorescence intensity (a.u.).
With “TCTGTAATCGTGGTGTTCATGTGTGTGAAATTGATGTTTTCGGAGTCACCTAGTGCAG” the binding signal was 9700 fluorescence intensity (a.u.).
In the case of “AATACGATTCCACCACCGCCTCTCATCTCCTCCTTTCTCGCGGAGTCACCTAGTGCAG”, the binding signal is reported as 8280 fluorescence intensity (a.u.).
With “ATCCTGTAGTCAACGGTTATGCATTCTTCTAATTGTTGTACGGAGTCACCTAGTGCAG” the binding signal was 8800 fluorescence intensity (a.u.).
With “ATTTGCTTAACTACGACGCCAGCATCGGCCTTTATTTCTTCGGAGTCACCTAGTGCAG” the binding signal was 9360 fluorescence intensity (a.u.).
For “GCCATTCTATAGGAGGTGGTGGGGAGGGTTTCGTGCTCCTCGGAGTCACCTAGTGCAG”, the binding signal was 10800 fluorescence intensity (a.u.).
For “AGCTGCCCCACACCTGGCTCCGCCCCTGGCTCCGGGCACCCGGAGTCACCTAGTGCAG”, the binding signal was 8250 fluorescence intensity (a.u.).
